In the supplement of paper PMC12067093, “Discovery and optimisation of a covalent ligand for TRIM25 and its application to targeted protein ubiquitination” (Chemical Science, 2025):
The other results are listed elsewhere or left out.

Compound: CC1Cc2ccccc2N1C(=O)C1CCCN(C1)C(=O)CCl (mixture of isomers) [TRIM25 ligand 11 (diastereomer mixture)]
Test: probe-labelled cysteine peptide fold change vs DMSO (competition) (log2 fold change); higher = less target engagement (more negative = stronger competition)
Conditions: THP-1, incubation time: 4 h
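Note: competitive chemoproteomic profiling in live THP-1 cells with an iodoacetamide desthiobiotin (IA-DTB) probe, comparing probe-labelled peptide intensities in compound-treated cells against DMSO-treated controls.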

Target | probe-labelled cysteine peptide fold change (10 µM) | probe-labelled cysteine peptide fold change (50 µM)
PPT1_P50897_160_CPGESSHICDFIR (UniProt P50897) | 0.053 | -0.0313
PREB_Q9HCU5_378_CQLHLLPSRR (UniProt Q9HCU5) | 0.105 | 0.318
PPP2R1B_P30154_524_MTTLFCINALSEACGQEITTK (UniProt P30154) | 0.0817 | 0.301
PPP1R7_Q15435_112_CIENLEELQSLR (UniProt Q15435) | 0.0828 | 0.0167
PRDX3_P30048_229_AFQYVETHGEVCPANWTPDSPTIKPSPAASK (UniProt P30048) | -0.0563 | -0.0995
PREP_P48147_532_QNCFDDFQCAAEYLIK (UniProt P48147) | 0.0303 | 0.0998
PRDX1_Q06830_71_KLNCQVIGASVDSHFCHLAWVNTPK (UniProt Q06830) | 0.142 | 0.16
PRAM1_Q96QH2_629_RGEILEVIEFTSNEEMLCR (UniProt Q96QH2) | 0.103 | 0.36
PRAG1_Q86YV5_1087_DPVPALPTHPPAQEQDCVVVITR (UniProt Q86YV5) | 0.0381 | 0.174
PREP_P48147_264_LWYCDLQQESSGIAGILK (UniProt P48147) | -0.00454 | -0.0172
PPP2R1A_P30153_377_DNTIEHLLPLFLAQLKDECPEVR (UniProt P30153) | -0.282 | -0.232
PPP4R2_Q9NY27_30_EVCPVLDQFLCHVAK (UniProt Q9NY27) | 0.0846 | 0.0644
PPP4R3B_Q5MIZ7_98_ICQVQGK (UniProt Q5MIZ7) | 0.0151 | 0.0864
PPP1R12C_Q9BZL4_297_LLAEHGGGMDSLTHAGQRPCDLADEEVLSLLEELAR (UniProt Q9BZL4) | 0.136 | -0.278
PPP2R5C_Q13362_50_QCCVLFDFVSDPLSDLK (UniProt Q13362) | -0.104 | -0.04
PPP1R9B_Q96SB3_270_ERCPAGQQPPQHR (UniProt Q96SB3) | -0.157 | -0.167
PRC1_O43663_14_RSEVLAEESIVCLQK (UniProt O43663) | 0.101 | -0.0856
PRDX1_Q06830_173_HGEVCPAGWKPGSDTIKPDVQK (UniProt Q06830) | -0.14 | -0.12
PPT1_P50897_46_ALQHLDPPAPLPLVIWHGMGDSCCNPLSMGAIKK (UniProt P50897) | -0.0224 | -0.262
PRDX6_P30041_47_DFTPVCTTELGR (UniProt P30041) | -0.0861 | -0.0664
PPOX_P50336_167_LGPEVASLAMDSLCR (UniProt P50336) | 0.0529 | 0.0999
PPP2R1A_P30153_504+512_MTTLFCINVLSEVCGQDITTK (UniProt P30153) | 0.177 | 0.222
PREPL_Q4J6C6_391_LPPWACGFIMDTNSDPK (UniProt Q4J6C6) | -0.175 | -0.153
PPP2R1B_P30154_389_ENTIEHLLPLFLAQLKDECPDVR (UniProt P30154) | -0.503 | -0.242

Full records, quoted from the list. Values in the order: probe-labelled cysteine peptide fold change (10 µM)	probe-labelled cysteine peptide fold change (50 µM)
PPP2R1B_P30154_389_ENTIEHLLPLFLAQLKDECPDVR (UniProt P30154) reads -0.503	-0.242
PPOX_P50336_167_LGPEVASLAMDSLCR (UniProt P50336) reads 0.0529	0.0999
